Laboratory results: article PMC5813027
These are yes or no findings as the source states them, for the method shown. Binding seen in cells or lysates may run through a third protein. Binding can be weak; no strength is given.

Biological target: T1, endogenous CCDC28B (human (endogenous in Hek293)) (UniProt Q9BUN5)
T1 sequence: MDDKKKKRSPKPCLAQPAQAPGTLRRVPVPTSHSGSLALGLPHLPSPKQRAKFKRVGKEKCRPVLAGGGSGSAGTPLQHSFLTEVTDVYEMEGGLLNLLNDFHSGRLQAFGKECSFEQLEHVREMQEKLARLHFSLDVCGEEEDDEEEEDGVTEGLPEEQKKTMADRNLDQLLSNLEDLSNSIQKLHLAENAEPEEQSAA
Test: co-IP; non-transfected cells; endogenous CCDC28B precipitated with biotinylated anti-CCDC28B VHH on Streptavidin-Agarose; western blots for KIF5B, KLC1, α-tubulin and CCDC28B

α/β-tubulin (human (endogenous in Hek293)) (complex)
binding: binds
